Experimental data: PubChem BioAssay AID686938 (Drosophila RNAi Screening Center, 2013)

Assay: 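Fly genes required for calcium entry once internal stores are emptied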 (primary screen)
Cell system: Drosophila S2R+ cells
Reagent: long dsRNA against Drosophila genes, about 0.25 µg dsRNA per well, roughly 10,000 cells
Time to read-out: 5 days of knock-down before the calcium assay
Treatment: thapsigargin (SERCA pump blocker) to empty calcium stores; entry signal taken 4 min after adding it
Measurement: 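Duplicate raw fluo-4 intensities per well from a plate reader, at rest and four minutes after thapsigargin emptied calcium stores; entry-to-rest ratio filled for only some wells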
Direction: calcium entry signal: higher = stronger calcium signal after store depletion; resting calcium signal: higher = higher resting calcium signal
Hit rule: 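Hit if the duplicate-averaged plate z-score for entry over resting signal is under −3; wells with weak total dye signal (Fmax z < −2) or more than 5 off-targets removed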
Calls: active = strongly reduced calcium entry; inactive = no strong reduction
The screen tested about 23,000 reagents; this is an unselected part of those with a known target gene and a result. Over the whole deposit, 75 (0.33%) got an active call. 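Raw plate signals without normalisation; calls rest on plate z-scores that were not deposited; ratio present for only 364 wells.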 Reagents against one gene are numbered here. Reagent sequences are not shown. The record does not give: the dose of the treatment.

target	reagent	calcium entry signal, replicate 1 (fluorescence units)	calcium entry signal, replicate 2 (fluorescence units)	resting calcium signal, replicate 1 (fluorescence units)	resting calcium signal, replicate 2 (fluorescence units)	outcome
CG8323	1	3.90e7	3.50e7	1.96e7	1.59e7	inactive
CG14893	1	2.69e7	2.72e7	1.27e7	3.95e7	inactive
PAN2 (Poly(A)-binding protein-dependent poly(A) ribonuclease 2)	1	5.81e7	4.21e7	2.51e7	1.94e7	inactive
Alg1 (ALG1, chitobiosyldiphosphodolichol beta-mannosyltransferase)	1	3.91e7	3.42e7	1.91e7	1.53e7	inactive
CG43896	1	2.71e7	4.10e7	1.38e7	1.79e7	inactive
CG43896	2	2.88e7	3.95e7	1.50e7	1.82e7	inactive
CG5897	1	2.74e7	3.65e7	1.47e7	1.50e7	inactive
CG7988	1	4.31e7	4.08e7	5.71e7	1.77e7	inactive
Osi23 (Osiris 23)	1	3.19e7	4.92e7	1.70e7	1.96e7	inactive
nompC (no mechanoreceptor potential C)	1	2.58e7	1.74e7	1.35e7	1.00e7	inactive
CG7745	1	2.89e7	2.64e7	1.34e7	1.28e7	inactive
CG7745	2	4.84e7	3.97e7	2.29e7	1.65e7	inactive
Asx (Additional sex combs)	1	2.19e7	4.05e7	1.16e7	1.83e7	inactive
CG32188	1	4.24e7	4.73e7	1.89e7	2.12e7	inactive
Ent2 (Equilibrative nucleoside transporter 2)	1	4.45e7		2.40e7		inactive
CG9997	1	4.20e7	5.11e7	1.93e7	2.04e7	inactive
CG3337	1	2.67e7	2.16e7	1.44e7	1.14e7	inactive
Caf1-55 (Chromatin assembly factor 1, p55 subunit)	1	2.76e7	3.38e7	1.38e7	1.67e7	inactive
stx (stuxnet)	1	3.55e7	4.85e7	1.76e7	2.45e7	inactive
stx (stuxnet)	2	4.18e7	6.11e7	1.96e7	2.80e7	inactive
stx (stuxnet)	3	3.34e7	2.46e7	1.34e7	1.07e7	inactive
CG3368	1	3.79e7	4.07e7	2.01e7	1.77e7	inactive
Syx1A (Syntaxin 1A)	1	3.80e7	3.19e7	2.31e7	1.78e7	inactive
Syx1A (Syntaxin 1A)	2	3.00e7	3.31e7	1.84e7	2.38e7	active
Calx (Na/Ca-exchange protein)	1	5.98e7	3.84e7	2.50e7	1.59e7	inactive
Calx (Na/Ca-exchange protein)	2	6.73e7	3.32e7	3.13e7	1.69e7	inactive
Calx (Na/Ca-exchange protein)	3	4.16e7	4.25e7	5.27e7	1.73e7	inactive
Calx (Na/Ca-exchange protein)	4	2.45e7	4.96e7	1.24e7	2.07e7	inactive
Dhx15 (DEAH-box helicase 15)	1	4.19e7		2.31e7		inactive
CG6325	1	3.46e7	5.00e7	1.57e7	2.01e7	inactive
Dhc36C (Dynein heavy chain at 36C)	1	5.60e7	3.41e7	2.27e7	1.78e7	inactive
CG31019	1	2.42e7	3.18e7	1.16e7	1.26e7	inactive
Cyp18a1 (Cytochrome P450 18a1)	1	3.43e7	3.96e7	1.56e7	1.66e7	inactive
Hs3st-B (Heparan sulfate 3-O sulfotransferase-B)	1	5.08e7	5.62e7	2.48e7	2.57e7	inactive
Ccp84Ac	1	4.42e7	3.71e7	2.28e7	1.72e7	inactive
CG12177	1	3.21e7	3.80e7	1.65e7	1.80e7	inactive
CG12177	2	3.29e7	3.22e7	1.84e7	1.55e7	inactive
CG32137	1	2.44e7	3.29e7	1.39e7	1.54e7	inactive
CG32137	2	2.95e7	4.15e7	1.73e7	1.87e7	inactive
bbc (bb in a boxcar)	1	2.77e7	5.81e7	1.18e7	2.66e7	inactive
bbc (bb in a boxcar)	2	2.91e7	3.87e7	1.46e7	1.90e7	inactive
E(spl)m4-BFM (Enhancer of split m4, Bearded family member)	1	3.31e7	5.52e7	1.83e7	2.39e7	inactive
Mdh2 (Malate dehydrogenase 2)	1	3.34e7	3.78e7	4.89e7	1.60e7	inactive
Nup154 (Nucleoporin 154kD)	1	2.74e7		1.76e7		inactive
dUTPase (Deoxyuridine triphosphatase)	1	5.26e7		2.49e7		inactive
CG12971	1	3.12e7	3.96e7	1.53e7	1.69e7	inactive
CG5079	1	2.75e7	2.84e7	1.62e7	1.54e7	inactive
CG5079	2	3.22e7	3.88e7	1.52e7	1.82e7	inactive
CG13700	1	3.07e7	5.78e7	1.60e7	2.20e7	inactive
Klc (Kinesin light chain)	1	5.55e7	4.45e7	3.62e7	1.85e7	inactive
Gr63a (Gustatory receptor 63a)	1	3.28e7	4.28e7	1.69e7	1.95e7	inactive
CG15525	1	3.94e7	5.59e7	2.02e7	2.56e7	inactive
CG42729	1	4.87e7	4.93e7	2.02e7	2.04e7	inactive
CG16723	1	3.83e7	4.59e7	1.82e7	1.88e7	inactive
CG18417	1	2.45e7	4.10e7	1.27e7	1.55e7	inactive
PGRP-SA (Peptidoglycan recognition protein SA)	1	3.03e7	4.67e7	1.53e7	2.24e7	inactive
CG6901	1	5.01e7	5.97e7	2.29e7	6.76e7	inactive
snz (snazarus)	1	2.01e7	3.31e7	1.06e7	1.44e7	inactive

Entries listed so far marked active (1):
target	reagent	calcium entry signal, replicate 1 (fluorescence units)	calcium entry signal, replicate 2 (fluorescence units)	resting calcium signal, replicate 1 (fluorescence units)	resting calcium signal, replicate 2 (fluorescence units)	outcome
Syx1A (Syntaxin 1A)	2	3.00e7	3.31e7	1.84e7	2.38e7	active
